PubChem BioAssay AID743454 – Peter MacCallum Cancer Centre – 2014
The deposit covers about 18,000 reagents; below is an unselected part. Of all reagents, 450 (2.5%) are marked active. 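Single biological run; no consistent viability z cut-off exists, so the class columns, not z-scores, define the calls.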 Unmarked entries are inactive.

Purpose: 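Genes whose loss kills vorinostat-resistant colon cancer cells under vorinostat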 (primary screen)
Cell system: human HCT116-VR colon cancer cells, selected for vorinostat resistance
Knock-down reagent: siRNA pool against human genes, 40 nM siRNA pool
Time to read-out: vorinostat for 24 h, read-out about 72 h after transfection
Conditions: vorinostat at 2.5 µM final
Measurement: 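Cell viability by CellTiter-Fluor and caspase 3/7 activity by luminescence, each scaled to mock wells per plate, duplicates averaged, then robust z-scored over all plates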
Direction: viability robust z-score: higher = more viable cells than screen typical; caspase robust z-score: higher = more caspase 3/7 activity than screen typical
Hit rule: 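Hits are knock-downs in viability class RV1/RV2 or caspase class CA1/CA2, excluding ones that killed cells in the no-drug cell-count arm; hits then retested with single siRNAs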

| Gene | viability hit class | caspase hit class | viability robust z-score | caspase robust z-score |
| --- | --- | --- | --- | --- |
| HS6ST3 | no change | no change | -0.04 | -0.42 |
| PPP2CA | no change | no change | -1.44 | 2.69 |
| CASP7 | no change | no change | 0.39 | -0.74 |
| TLL1 | no change | no change | -0.64 | 0.97 |
| SLC30A3 | no change | no change | 0.54 | 1.19 |
| BLOC1S3 | no change | no change | 0.97 | 1.26 |
| SLC25A37 | no change | no change | -1.46 | 0.68 |
| CDH9 | no change | no change | 1.45 | 0.88 |
| TUBA1B | no change | no change | -3.21 | 0.52 |
| A4GNT | no change | no change | 0.36 | -0.53 |
| NUS1 | no change | no change | 0.9 | 0.46 |
| MAN2C1 | no change | no change | 0.96 | -0.78 |
| NEB | no change | no change | 0.76 | -0.4 |
| CD55 | no change | no change | -0.25 | -0.54 |
| HMMR | no change | no change | 1.12 | -0.28 |
| RGS12 | no change | no change | 0.62 | 1.59 |
| CBLIF | no change | no change | 1.47 | 0 |
| CNOT3 | no change (active) | CA2 (caspase activation) | 0.21 | 6.2 |
| ARRDC4 | no change | no change | 0.2 | -1.04 |
| SMOX | no change | no change | 1.4 | -0.99 |
| YBX3 | no change | no change | 0.15 | -0.4 |
| RAC2 | no change | no change | -1.81 | -0.2 |
| SERPINA1 | no change | no change | -0.57 | -0.3 |
| RENBP | no change | no change | 0.74 | 1.42 |
| NARS1 | no change | no change | -1.36 | -0.26 |
| PRSS38 | no change | no change | -3.16 | 1.33 |
| POLR2D | RV2 (reduced viability) (active) | CA2 (caspase activation) | -3.57 | 6.06 |
| KIZ | no change | no change | 0.2 | -1.23 |
| GPR45 | no change | no change | 0.2 | 0.29 |
| ZMAT1 | no change | no change | 1.19 | -0.24 |
| TAAR6 | no change | no change | -1.02 | 1.04 |
| SMARCD3 | no change | no change | 0.18 | 1.02 |
| TC2N | no change | no change | -0.19 | -0.22 |
| RAB3A | no change | no change | 0.22 | -0.26 |
| ZNF284 | no change | no change | 0.42 | 0.3 |
| HERC1 | no change | no change | -0.9 | -1.04 |
| OR4K14 | no change | no change | 0.11 | -0.24 |
| TFF1 | no change | no change | -0.55 | 0.63 |
| SFRP5 | no change | no change | -1.31 | 0.19 |
| MAPK1IP1L | no change | no change | 1.81 | 0.21 |

Taken from above.
For “viability hit class”, RENBP has no change
Entry for CASP7 in “viability robust z-score”: 0.39
Result for PPP2CA in “viability hit class”: no change
Result of TC2N under “caspase robust z-score”: -0.22
HS6ST3, viability robust z-score: -0.04
For “viability robust z-score”, SFRP5 reads -1.31

More results:
| Gene | viability hit class | caspase hit class | viability robust z-score | caspase robust z-score |
| --- | --- | --- | --- | --- |
| FANCC | no change | no change | -0.28 | -0.6 |
| UNKL | no change | no change | -0.06 | 0.78 |
| RBP1 | no change | no change | 1 | -0.74 |
| INPP5A | no change | no change | -0.96 | 1.9 |
| P4HA3 | no change | no change | -1.51 | -0.83 |
| BMERB1 | no change | no change | -0.04 | 0.33 |
| TRA2A | no change | no change | 0.36 | -0.78 |
| CD300E | no change | no change | -0.62 | -1.34 |
| S100A9 | no change | no change | -1.03 | 0.06 |
| ATP5ME | no change | no change | -0.52 | 0.84 |
| RAB41 | no change | no change | -0.2 | -0.98 |
| PPP2R2C | no change | no change | 1.62 | -0.08 |
| SNAPIN | no change | no change | 0.89 | 0.46 |
| C9orf152 | no change | no change | 0.02 | -0.78 |
| CYBC1 | no change | no change | -0.19 | -0.1 |
| CHRM2 | no change | no change | -0.68 | -0.74 |
| TMEM234 | no change | no change | -0.93 | 0.69 |
| ZNF692 | no change | no change | -0.01 | -0.82 |
| GNGT2 | no change | no change | -1.04 | 0.88 |
| TRIM62 | no change | no change | 0.46 | 0.28 |
| LIPH | no change | no change | 1.62 | 0.04 |
| NAT8 | no change (active) | CA1 (caspase activation) | -0.24 | 5.38 |
| SERPINA9 | no change | no change | 1.41 | -0.71 |
| ANKRD49 | no change | no change | 0.64 | -0.34 |
| GLRA3 | no change | no change | -0.06 | -0.2 |
| JMJD7-PLA2G4B | no change | no change | -1.66 | 0.34 |
| ZNF300 | no change | no change | -1.44 | -0.54 |
| ECH1 | no change | no change | 1.36 | 0.01 |
| CWC25 | no change | no change | -0.88 | -1.32 |
| AMBP | no change | no change | -2.23 | 1.64 |
| OR4S1 | no change | no change | -0.5 | -0.64 |
| ERCC6L | no change | no change | -0.22 | -0.24 |
| TBX20 | no change | no change | 0.38 | 0.6 |
